Results on 105 sequences are retold here after PubChem BioAssay AID1347423 (Functional Genomics Laboratory (NCATS/FGL), 2020).

Hit rate of the full screen: of about 52,000 sequences, about 210 (0.4%) were called active.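 Rule for the calls: active = gene whose silencing raises cell survival under the drug, median off-target-corrected z-score across its silencing RNAs 2 or more; inactive = the rest.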 This is one part of the list.

This assay in a line: Resistance to Poly (ADP-Ribose) Polymerase inhibitor: Gene Identification via Genome-wide siRNA Screen. The conditions noted are these: mouse BRCA2 R2336H ES cells, olaparib, CellTiter-Glo viability; active compounds read high. The gist of the method: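 Mouse BRCA2 R2336H ES cells were reverse-transfected with siRNA (20 nM final), treated at 48 h with 500 nM olaparib, and read by CellTiter-Glo after 72 h. Scores: MAD-based z per siRNA, median per gene, seed off-target correction.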
With GCAAGAAACAUUAGCGAAUTT against Dapk1, the z-score was inactive: 1.31.
Next, CGAGAGUCAGCUAUUAAUGTT against Stoml2: inactive: -0.456; CCCUCAUAACUAAUGCUGUTT against Pip5kl1: inactive: 0.251; CCGGUUAGCUCAGUAUGACTT against AI452372: inactive: 0.189.
As to “GCGACAGAGGAAGCUUGUUTT against 2600016B03Rik”, the z-score is inactive: -2.87.
The value for CCCAAGAAUUCAAAUCCUATT against Rgr was inactive: 0.468.
The value for GGAUGGACCGGAGACAACUTT against Brs3 was inactive: -0.681; that for GGUGUUGUGGAAUAUUUAATT against Cnot6l was inactive: 1.95; that for “GGUCCAGAGUUAUGAUUUGTT against 4833420N02Rik” was inactive: 0.477.
Next, GGUGUAAGAACUUCAAGUUTT against Tlr9: inactive: 0.202; GGAUAGAGACUGAUGCUCATT against Eat2: inactive: -0.217.
On to GGUCAACAACCUCAUCUGCTT against Lhx6, for which the z-score is inactive: 0.105.
As for GGAAGAACUUCUGUUCAUGTT against Krt1-18, the z-score was inactive: -0.483.
The value for GGAGGGUACUCACAGGAAATT against Olfr411 was inactive: -1.4; that for GGUUAAAUCCCUGAUGUAUTT against Ptdss1 was inactive: -0.928; that for GCCUAGCUGAAAACGUGUCTT against Cog4 was inactive: 0.255.
The value for CCUCAAUGAGAGUCUAAUGTT against Olfr97 was inactive: -2.45; that for CGCAGUGUGUCUCAUUUAATT against Anxa5 was inactive: 0.256.
Next, GCUAGCCGUGUUUUCUAUUTT against Twist2: inactive: 0.873; GCAGGAUUGAAACAUGUAUTT against Tcl1b3: inactive: 0.892; GCCUAUCUUGUCACCACUGTT against Tagln2: inactive: 0.407.
For GGGAAAGCCAUCCUUCACUTT against BC030476, the z-score is inactive: 0.0613.
Next, GGAAUCAUUUGUUCCCAACTT against Lpl: inactive: 1.36; “GGUGAACUUGUGUCUCACUTT against D16H22S680E”: inactive: 0.631.
In the case of GGAGAUCACAUGUUUUUUUTT against Keap1, the z-score was inactive: 1.33.
The value for “GGUCUAUGAAGAGAAGACUTT against 1700021F05Rik” was inactive: 1.43; that for GGAAAAGAUUGACAUCUGCTT against Jrk was inactive: 0.125.
The value for CCUGGAACUUGUUGGAAGCTT against Igsf3 was inactive: 1.86.
Turning to “GGAUGUUACUCCCUCAAAUTT against 4930511M11Rik”, the z-score is inactive: 1.32.
Next, CGUUACGUAAAUCUUGUGATT against Sstr2: inactive: 0.0885; GCUGCAUAGACUCAUGGUUTT against Znrf1: inactive: 0.16; GUACCUGAAUUGCUACCGATT against Ly6g5c: inactive: 3.1.
For CCAUCCGGGAAAAAAUCAATT against Cdk5rap3, the z-score is inactive: -0.0314.
For “CCAUUUCCCAUUUCUGAAGTT against 1700001P01Rik”, the z-score was inactive: 0.97.
Next, UCAUUAGUAUCCUCCGUAUTT against Olfr919: inactive: -1.25; GGCAUCUUCCUGAAAAAGCTT against Mybpc2: inactive: 0.0738; GGAGUAUGUGCAAUAUAAATT against Asb15: inactive: 1.02.
Next, GGCAUGUUCUGGGCAGAUGTT against Resp18: inactive: -0.839; CCAGAAACAUACGAAGAUUTT against Khdrbs1: active: 2.31.
Take GGGAAAACAGAAGAGUUUGTT against Sh2bp1: the z-score is inactive: -1.01.
Next, GGCGCAUAUGUAGCACCUATT against Egfl8: inactive: 0.389; GGCCUAUCUCAUCUAUUUCTT against Ptpru: inactive: 0.662.
Regarding CCUUGAGCACAUCUGCUUGTT against Serpina3k, the z-score is inactive: 1.05.
Regarding GGACUAUCAGGACCUUUUUTT against Dnajb3, the z-score was inactive: -1.77.
As to CCAUCUCCUUCAUUCUGUGTT against Olfr444, the z-score was inactive: -1.82.
As for GGUCAAGAAAUGGAAGCUGTT against Dos, the z-score is inactive: 1.91.
The value for GGGAAACUCUUUGAAGAUATT against Lsm5 was inactive: -2.47; that for GGCUUUAGCAGAUGAGCGATT against Spnb4 was inactive: -1.66.
The value for “GCUUUUUACAGGAUAUACATT against D5Ertd689e” was inactive: -0.521; that for AAACAGUCAUUUCCUAUAGTT against Olfr1502 was inactive: 0.0448.
The value for GGAAUUUGUCAGGUUCCAATT against Grik4 was inactive: -0.42.
As to GGAGUUUGUAACCCUCCUGTT against Cabp7, the z-score is inactive: 0.724.
Take GGCAGAAGUUGGAAGAAAUTT against Tap1: the z-score was inactive: -0.612.
The value for CGCAAGUAUUUCCACCAUATT against Clk4 was inactive: 0.706; that for GGACAGAUUUGUGAAUGAUTT against Rcn2 was inactive: -1.24.
Next, GCUUACGUAGGAAAUCUCCTT against Wbscr1: inactive: 0.231.
With GCAGCCCACUCAUAUGAAATT against Homez, the z-score is inactive: 1.3.
With “GCUUGUCUACUAUUUCACATT against 1700067C01Rik”, the z-score was inactive: -0.127.
Take GGUGAGUGAUCUUCAGAACTT against Snx13: the z-score was inactive: 0.227.
Next, “GGAGGAAAAGGCUUUUCGATT against 1700112P19Rik”: inactive: -1.09; GGAGAAAGCUUACUGCCUUTT against Lrrc6: inactive: -0.628; “GCCAUCGAUACCACAACACTT against Slfn8-pending”: inactive: 0.928.
Next, CCGUCAUCACUGAUCAGUUTT against Olfr684: inactive: -0.243; GGUCAAGUAACAUGGUUUGTT against MGC68340: inactive: 1.19.
For the sequence GGACUUUCUUAACUACACUTT against Slc2a3, the z-score was inactive: -1.41.
With CCCAUAGAACAUCUUAAAATT against Ifi202b, the z-score is inactive: 0.205.
The value for GGACAAGUUUGAAUUUGACTT against Usp5 was inactive: -2.09; that for CCAGUAUUCAUGUAAAUGGTT against Crbn was inactive: 0.0719.
The value for GGCUAAGAAACUGAAGAGATT against BC020535 was inactive: -1.26; that for CGUGAACAUUUCCUACAUATT against LOC13909 was inactive: -0.468; that for “GCUUACCCUCUCCUAAAUUTT against 0610012K18Rik” was inactive: 0.737.
CGAUGCUGUGGAACUGCACTT against Ptgfrn: the z-score is inactive: 1.75.
For GGAUCAAUUCUAGAAUCAGTT against Runx3, the z-score is inactive: 0.347.
Next, “GGGUGUGAAGGAGUUCAAGTT against 5430400N05Rik”: inactive: 0.297; GGAAUUCCUCUGUAUGAAATT against Pgr: inactive: 0.327; GGAGUAUGGCGAAUUCUAUTT against Hspcb: inactive: -0.15.
Next, “CGUCUUUGCCCAUACACUCTT against A230052G05Rik”: inactive: -1.63; “GCUCGAGAUCGAAACAUACTT against 4432412D15Rik”: inactive: 1.68; “GCUCAAAUUGAGUCCUUAUTT against 4933415L06Rik”: inactive: -1.63.
Next, GGUUGAAUCCUAAGAAUGUTT against AA517853: inactive: -1.17.
On to “CCCAGAAGGAAUGGCUAAATT against 1700054O13Rik”, for which the z-score is inactive: 0.922.
Next, GGGAGAGGUGUUACACCCUTT against Adamts10: inactive: 0.0725; GGGAGAUAGCCGAUAUAUCTT against Ebp: inactive: 1.99; GGGAAAAGUGACAAUUGCUTT against Dusp8: inactive: -2.31.
Take GAGCUCCUCUGCUUUCUCUTT against Ms4a6d: the z-score was inactive: 0.127.
With GGAUGACCAAGAAUGGGAATT against Dap, the z-score was inactive: 0.0617.
Next, GGAAGUCUCUAUCCUGAACTT against Tsp50: inactive: -0.771; CGUAAUACAAUCCAGUUCATT against Aqr: inactive: -2.58; GGAACAACAUCCGUAUUGCTT against Brsk2: inactive: 0.414.
Turning to GCUACCUGAAACACAGCAATT against Hes5, the z-score is inactive: 0.585.
On to “GGUGGAUUGACUAUGGCAATT against 4932416A15”, for which the z-score was inactive: -1.09.
Next, GGCCUGUGGAAGAAAUACGTT against Pdhb: inactive: 0.133; GGAGCAUUUCCUCACAACATT against Idh3g: inactive: -0.296.
On to “GGCAGCAGAGAACAAGAAATT against 1200009K13Rik”, for which the z-score was inactive: -1.8.
Take CCAAGAUUGACAUCAUCCGTT against Pkn1: the z-score is inactive: 0.344.
Next, “GCACUUCAGUUUACAAAACTT against D130064H19Rik”: inactive: 0.0937.
Next, GUUCUGAGAAGAAACCCAUTT against V1rh9: inactive: 0.811.
As for GCAUGUAGAUACGUGGGUATT against Usp38, the z-score is inactive: -2.27.
The value for “GGAGAUCCUUAAGCUGUUGTT against 2700083B06Rik” was inactive: 1.75; that for “GCCAGGCAAAUUACAUCGCTT against 1300007L22Rik” was inactive: 0.693.
Next, GGGACAGAUCUGAACCUUUTT against Dtr: inactive: 0.311.
Next, GCUUUACGAUACUCCAUAUTT against Shd: inactive: -0.181; GCUGGUGUCAUUAGACAGUTT against Npc1l1: inactive: -0.302; GGCCCUGUUAGUGCUAUACTT against Amh: inactive: -1.25.
Regarding “GGUACAAAUGAAGCUUUGATT against C230095G01Rik”, the z-score was inactive: -0.539.
